# The list shows a part of the results.
# B1: GS7807F-bth-514-18-514 (Bacteroides thetaiotaomicron) (protein)
# chain: AGSCTGNFEEYNTNQFQIHEADPSTLMKSMIETIVNIQQNDSQMMDQMVGQLGGYLTCANVWSGTNFGTFNQSDAWNAGPWNTNFEKIYGNFFQIQEATNESGHYYAFARMIRAITMLRVADCYGPMPYSQVKKGNFYVAYDTEEQVYKNIMEDFASAANVLYNYYKDTNGNAPLASNDPVFSGNYANWARLANSMRLRVAIRISTAYPEMAKENAEAAASHEAGLIEANNDNAMMDCGSQTNPYQLAAVSWGDLRVNANIVDYMNGYGDPRMSKYFNHSTFTGHTQEYVGMRSGEDGFAKSDVAGYSIPAITGTSKLLVFCAAETAFLRAEGKLKNWSVGNKSAKEYYEEGIKLSMEQYGTTMPDNYLTNTEKPTVSHNNDPRGHAYTISNTVAVAWNDNNEEENLQRIITQKWIANYPLGLEAWAEYRRTGYPELYPCIDNLSPSGVDSKRGMRRLRFPYTEVQNNHSNYQQGVSYLKNGGPDNEATDLSWGKTN
# Experiments:
# Assay in all cases: glycan array binding signal (z-score within array); higher = stronger binding
# Details in all cases: glycan notation: IUPAC condensed, linker removed
# [1] = biological target: Fuc(a1-2)Gal(b1-4)GlcNAc(b1-3)Gal(b1-4)GlcNAc(b1-3)Gal(b1-4)GlcNAc
# In short: (§1)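 Arrays were curated from the Consortium for Functional Glycomics database, 3228 in total, and kept only where the protein sequence was available. Binding is expressed as a within-array Z-score. This score was averaged across arrays of the same protein sequence at different concentrations or buffers and across linkers, and negative values can be read as non-binding.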
# [2] = biological target: Fuc(a1-2)Gal(b1-4)GlcNAc(b1-3)GalNAc
# In short: as §1
# [3] = biological target: Fuc(a1-2)Gal(b1-4)GlcNAc(b1-3)[Fuc(a1-2)Gal(b1-4)GlcNAc(b1-6)]GalNAc
# In short: as §1
# [4] = biological target: Fuc(a1-2)Gal(b1-4)GlcNAc(b1-3)[Fuc(a1-3)[Gal(b1-4)]GlcNAc(b1-6)]Gal(b1-4)Glc
# In short: as §1
# [5] = biological target: Fuc(a1-2)Gal(b1-4)GlcNAc(b1-6)GalNAc
# In short: as §1
# [6] = biological target: Fuc(a1-2)Gal(b1-4)GlcNAc6S
# In short: as §1
# [7] = biological target: Fuc(a1-2)Gal(b1-4)[Fuc(a1-3)]GlcNAc
# In short: as §1
# [8] = biological target: Fuc(a1-2)Gal(b1-4)[Fuc(a1-3)]GlcNAc(b1-2)Man(a1-3)[Fuc(a1-2)Gal(b1-4)[Fuc(a1-3)]GlcNAc(b1-2)Man(a1-6)]Man(b1-4)GlcNAc(b1-4)[Fuc(a1-6)]GlcNAc
# In short: as §1
# [9] = biological target: Fuc(a1-2)Gal(b1-4)[Fuc(a1-3)]GlcNAc(b1-2)[Fuc(a1-2)Gal(b1-4)[Fuc(a1-3)]GlcNAc(b1-4)]Man(a1-3)[Fuc(a1-2)Gal(b1-4)[Fuc(a1-3)]GlcNAc(b1-2)Man(a1-6)]Man(b1-4)GlcNAc(b1-4)GlcNAc
# In short: as §1
# [10] = biological target: Fuc(a1-2)Gal(b1-4)[Fuc(a1-3)]GlcNAc(b1-3)Gal(b1-4)[Fuc(a1-3)]GlcNAc
# In short: as §1
# [11] = biological target: Fuc(a1-2)Gal(b1-4)[Fuc(a1-3)]GlcNAc(b1-3)Gal(b1-4)[Fuc(a1-3)]GlcNAc(b1-3)Gal(b1-4)[Fuc(a1-3)]GlcNAc
# In short: as §1
# [12] = biological target: Fuc(a1-2)Gal(b1-4)[Fuc(a1-3)]GlcNAc(b1-3)GalNAc
# In short: as §1
# [13] = biological target: Fuc(a1-2)Gal(b1-4)[Fuc(a1-3)]GlcNAc(b1-3)[Neu5Ac(a2-6)Gal(b1-4)GlcNAc(b1-6)]Gal(b1-4)Glc
# In short: as §1
# [14] = biological target: Fuc(a1-2)Gal3S(b1-4)GlcNAc
# In short: as §1
# [15] = biological target: Fuc(a1-2)Gal6S(b1-3)GlcNAc
# In short: as §1
# [16] = biological target: Fuc(a1-2)Gal6S(b1-3)GlcNAc6S
# In short: as §1
# Fuc(a1-2)Gal6S(b1-4)Glc = biological target: Fuc(a1-2)Gal6S(b1-4)Glc
# In short: as §1
# [17] = biological target: Fuc(a1-2)Gal6S(b1-4)Glc6S
# In short: as §1
# Fuc(a1-2)[Gal(a1-3)]Gal = biological target: Fuc(a1-2)[Gal(a1-3)]Gal
# In short: as §1
# [18] = biological target: Fuc(a1-2)[Gal(a1-3)]Gal(b1-3)GalNAc
# In short: as §1
# [19] = biological target: Fuc(a1-2)[Gal(a1-3)]Gal(b1-3)GalNAc(b1-3)Gal(a1-4)Gal(b1-4)Glc
# In short: as §1
# [20] = biological target: Fuc(a1-2)[Gal(a1-3)]Gal(b1-3)GlcNAc
# In short: as §1
# [21] = biological target: Fuc(a1-2)[Gal(a1-3)]Gal(b1-3)GlcNAc(b1-2)Man(a1-3)[Fuc(a1-2)[Gal(a1-3)]Gal(b1-3)GlcNAc(b1-2)Man(a1-6)]Man(b1-4)GlcNAc(b1-4)GlcNAc
# In short: as §1
# [22] = biological target: Fuc(a1-2)[Gal(a1-3)]Gal(b1-3)GlcNAc(b1-2)Man(a1-3)[Fuc(a1-2)[Gal(a1-3)]Gal(b1-3)GlcNAc(b1-2)Man(a1-6)]Man(b1-4)GlcNAc(b1-4)[Fuc(a1-6)]GlcNAc
# In short: as §1
# [23] = biological target: Fuc(a1-2)[Gal(a1-3)]Gal(b1-3)GlcNAc(b1-3)GalNAc
# In short: as §1
# [24] = biological target: Fuc(a1-2)[Gal(a1-3)]Gal(b1-3)GlcNAc(b1-6)GalNAc
# In short: as §1
# [25] = biological target: Fuc(a1-2)[Gal(a1-3)]Gal(b1-4)Glc
# In short: as §1
# [26] = biological target: Fuc(a1-2)[Gal(a1-3)]Gal(b1-4)GlcNAc
# In short: as §1
# [27] = biological target: Fuc(a1-2)[Gal(a1-3)]Gal(b1-4)GlcNAc(b1-2)Man
# In short: as §1
# [28] = biological target: Fuc(a1-2)[Gal(a1-3)]Gal(b1-4)GlcNAc(b1-2)Man(a1-3)[Fuc(a1-2)[Gal(a1-3)]Gal(b1-4)GlcNAc(b1-2)Man(a1-6)]Man(b1-4)GlcNAc(b1-4)GlcNAc
# In short: as §1
binder,measurement,setting,value
B1,glycan array binding signal (z-score),[1],-0.824
same,glycan array binding signal (z-score),[2],0.215
same,glycan array binding signal (z-score),[3],0.137
same,glycan array binding signal (z-score),[4],0.222
same,glycan array binding signal (z-score),[5],1.22
same,glycan array binding signal (z-score),[6],-0.78
same,glycan array binding signal (z-score),[7],-0.646
same,glycan array binding signal (z-score),[8],-0.583
same,glycan array binding signal (z-score),[9],-0.286
same,glycan array binding signal (z-score),[10],-0.198
same,glycan array binding signal (z-score),[11],-0.169
same,glycan array binding signal (z-score),[12],1.06
same,glycan array binding signal (z-score),[13],-0.798
same,glycan array binding signal (z-score),[14],-0.31
same,glycan array binding signal (z-score),[15],-0.762
same,glycan array binding signal (z-score),[16],-0.358
same,glycan array binding signal (z-score),Fuc(a1-2)Gal6S(b1-4)Glc,-0.341
same,glycan array binding signal (z-score),[17],-0.674
same,glycan array binding signal (z-score),Fuc(a1-2)[Gal(a1-3)]Gal,-0.629
same,glycan array binding signal (z-score),[18],-0.384
same,glycan array binding signal (z-score),[19],-0.895
same,glycan array binding signal (z-score),[20],-0.584
same,glycan array binding signal (z-score),[21],0.454
same,glycan array binding signal (z-score),[22],-0.408
same,glycan array binding signal (z-score),[23],-0.663
same,glycan array binding signal (z-score),[24],0.398
same,glycan array binding signal (z-score),[25],-0.407
same,glycan array binding signal (z-score),[26],-0.659
same,glycan array binding signal (z-score),[27],-0.295
same,glycan array binding signal (z-score),[28],1.31

# Part of the list above, as tab-separated lines:
binder	measurement	setting	value
B1	glycan array binding signal (z-score)	[8]	-0.583
same	glycan array binding signal (z-score)	[9]	-0.286

# Reference: the supplement of paper PMC8728848
